Measured values taken from the supplement of paper PMC4604168 (melanoma cell lines).
This is one part of the list. Many values rest on one well or one pass, so single values are uncertain.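 The apoptosis fraction was the count of cleaved-PARP antibody-stained nuclei relative to all DNA-stained nuclei, imaged in 1,536-well plates. Screening doses were set so most cells survived, and baseline and induced cleaved-PARP levels vary greatly across cell lines.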

test system: SkMel28; assay: cleaved PARP positive nuclei fraction relative to DMSO control; melanoma cells; higher = more apoptosis; details: library dose: low library concentration; 72 h

Row | Compound | cleaved PARP positive nuclei fraction
1 | Cc1cn(-c2cc(NC(=O)c3ccc(C)c(Nc4nccc(-c5cccnc5)n4)c3)cc(C(F)(F)F)c2)cn1 [nilotinib] + Cc1ccc(NC(=O)c2cccc(N(C)C)c2)cc1NC(=O)c1ccc(O)cc1 [ZM336372] (first compound 0.2 µM, partner dose 2 µM) | 139%
2 | CC[C@]1(O)C[C@H]2CN(CCc3c([nH]c4ccccc34)[C@@](C(=O)OC)(c3cc4c(cc3OC)N(C=O)[C@H]3[C@@](O)(C(=O)OC)[C@H](OC(C)=O)[C@]5(CC)C=CCN6CC[C@]43[C@@H]65)C2)C1 [vincristine] + O=C(Nc1cccc(Cl)c1)Nc1ncc(CCNc2ncnc3ccsc23)s1 [SNS314] (first compound 0.0001 µM, partner dose 0.0008 µM) | 99.8%
3 | Cc1ccc(Nc2nccc(N(C)c3ccc4c(C)n(C)nc4c3)n2)cc1S(N)(=O)=O [Pazopanib] + O=C(Nc1cccc(Cl)c1)Nc1ncc(CCNc2ncnc3ccsc23)s1 [SNS314] (first compound 0.4 µM, partner dose 0.0008 µM) | 227%
4 | CC[C@]1(O)C[C@H]2CN(CCc3c([nH]c4ccccc34)[C@@](C(=O)OC)(c3cc4c(cc3OC)N(C=O)[C@H]3[C@@](O)(C(=O)OC)[C@H](OC(C)=O)[C@]5(CC)C=CCN6CC[C@]43[C@@H]65)C2)C1 [vincristine] + COc1ccc(-c2ccc3c(N4CCOCC4)nc(N4C[C@@H](C)O[C@@H](C)C4)nc3n2)cc1CO [KU0063794] (first compound 0.0001 µM, partner dose 0.02 µM) | 58.6%
5 | O=c1[nH]nc(Sc2ncc([N+](=O)[O-])s2)n1-c1ccc2c(c1)OCCO2 + COc1cc(Nc2ncc(F)c(Nc3ccc4c(n3)NC(=O)C(C)(C)O4)n2)cc(OC)c1OC [Tamatinib] (first compound 0.2 µM, partner dose 0.4 µM) | 135%
6 | O=C(/C=C/c1cccnc1)NCCCCC1CCN(C(=O)c2ccccc2)CC1 + Cc1cc(N2CCOCC2)cc2[nH]c(-c3c(NC[C@@H](O)c4cccc(Cl)c4)cc[nH]c3=O)nc12 [BMS536924] (first compound 0.01 µM, partner dose 0.2 µM) | 142%
7 | Cc1cc(Nc2cc(N3CCN(C)CC3)nc(Sc3ccc(NC(=O)C4CC4)cc3)n2)n[nH]1 [Tozasertib] + CC1(C)NC(=O)N(c2ccc([N+](=O)[O-])c(C(F)(F)F)c2)C1=O [nilutamide] (first compound 0.006 µM, partner dose 1 µM) | 357%
8 | O=C(/C=C/c1cccnc1)NCCCCC1CCN(C(=O)c2ccccc2)CC1 + O=S(=O)(c1ccccc1)N(CC(F)(F)F)c1ccc(C(O)(C(F)(F)F)C(F)(F)F)cc1 [T0901317] (first compound 0.01 µM, partner dose 1.4 µM) | 103%
9 | CC[C@]1(O)C[C@H]2CN(CCc3c([nH]c4ccccc34)[C@@](C(=O)OC)(c3cc4c(cc3OC)N(C=O)[C@H]3[C@@](O)(C(=O)OC)[C@H](OC(C)=O)[C@]5(CC)C=CCN6CC[C@]43[C@@H]65)C2)C1 [vincristine] + Cc1cc(N2CCOCC2)cc2[nH]c(-c3c(NC[C@@H](O)c4cccc(Cl)c4)cc[nH]c3=O)nc12 [BMS536924] (first compound 0.0001 µM, partner dose 0.2 µM) | 659%
10 | O=c1[nH]nc(Sc2ncc([N+](=O)[O-])s2)n1-c1ccc2c(c1)OCCO2 + O=c1cc(-c2cccc3c2Sc2ccccc2S3)oc(N2CCOCC2)c1 [KU55933] (first compound 0.2 µM, partner dose 1 µM) | 138%
11 | COc1cc([C@@H]2c3cc4c(cc3[C@@H](O[C@@H]3O[C@@H]5CO[C@@H](C)O[C@H]5[C@H](O)[C@H]3O)[C@H]3COC(=O)[C@H]23)OCO4)cc(OC)c1O [etoposide] + O=C1NC(=O)/C(=C/c2ccc(-c3ccc(F)cc3O)o2)S1 [AS252424] (first compound 0.02 µM, partner dose 1 µM) | 87.7%
12 | Cc1cn(-c2cc(NC(=O)c3ccc(C)c(Nc4nccc(-c5cccnc5)n4)c3)cc(C(F)(F)F)c2)cn1 [nilotinib] + CCCCCCCCCCCC1=C(O)C(=O)C=C(O)C1=O [Embelin] (first compound 0.2 µM, partner dose 1.2 µM) | 40.9%

A different layout for some results above.
O=C(/C=C/c1cccnc1)NCCCCC1CCN(C(=O)c2ccccc2)CC1 + Cc1cc(N2CCOCC2)cc2[nH]c(-c3c(NC[C@@H](O)c4cccc(Cl)c4)cc[nH]c3=O)nc12 [BMS536924] (first compound 0.01 µM, partner dose 0.2 µM)
  cleaved PARP positive nuclei fraction: 142%
Cc1cc(Nc2cc(N3CCN(C)CC3)nc(Sc3ccc(NC(=O)C4CC4)cc3)n2)n[nH]1 [Tozasertib] + CC1(C)NC(=O)N(c2ccc([N+](=O)[O-])c(C(F)(F)F)c2)C1=O [nilutamide] (first compound 0.006 µM, partner dose 1 µM)
  cleaved PARP positive nuclei fraction: 357%
